The exact form of at least one protein or probe is not confirmed. Negatives hold for the conditions tested.

The source of these data is paper PMC9010301.

For this data set, the system named is Rad24-RFC clamp loader + 9-1-1 clamp (Ddc1-Mec3-Rad17). Put plainly: cryo-EM complex assembly. To be noted: 0.5 mM ATPgS, 5 mM Mg acetate, no ternary complex observed, 3'-terminal ddC on primer strand, 1.8 uM Rad24-RFC, 2.2 uM 9-1-1, 2.7 uM DNA, 9-1-1 + DNA 10 min at 30 C, recombinant protein.

Regarding “CTGCACGAATTAAGCAATTCGTAATCATGGTCATAGCT / AGCTATGACCATGATTACGAATTGC [3'-recessed DNA]”, the binding result is “no binding”.
